From the supplement of paper PMC12819154, “High-throughput peptide-centric local stability assay extends protein–ligand identification to membrane proteins, tissues and bacteria” (Nature Structural & Molecular Biology, 2025)
The list shows a part of the results. Small differences around the control level are noise.

Protein sequences, listed by entry. Tags and fused reporters are not part of them. Lines headed by an entry give the natural chain unless they say otherwise; changes in a name come on top.
UniProt Q791V5: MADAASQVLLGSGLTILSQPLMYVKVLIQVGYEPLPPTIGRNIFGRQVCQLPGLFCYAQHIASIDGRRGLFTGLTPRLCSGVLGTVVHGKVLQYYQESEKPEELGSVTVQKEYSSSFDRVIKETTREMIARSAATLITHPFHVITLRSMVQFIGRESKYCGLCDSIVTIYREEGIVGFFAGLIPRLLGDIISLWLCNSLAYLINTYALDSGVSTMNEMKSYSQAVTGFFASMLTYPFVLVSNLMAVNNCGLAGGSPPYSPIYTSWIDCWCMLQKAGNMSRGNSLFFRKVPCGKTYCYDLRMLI
UniProt Q6P6M7: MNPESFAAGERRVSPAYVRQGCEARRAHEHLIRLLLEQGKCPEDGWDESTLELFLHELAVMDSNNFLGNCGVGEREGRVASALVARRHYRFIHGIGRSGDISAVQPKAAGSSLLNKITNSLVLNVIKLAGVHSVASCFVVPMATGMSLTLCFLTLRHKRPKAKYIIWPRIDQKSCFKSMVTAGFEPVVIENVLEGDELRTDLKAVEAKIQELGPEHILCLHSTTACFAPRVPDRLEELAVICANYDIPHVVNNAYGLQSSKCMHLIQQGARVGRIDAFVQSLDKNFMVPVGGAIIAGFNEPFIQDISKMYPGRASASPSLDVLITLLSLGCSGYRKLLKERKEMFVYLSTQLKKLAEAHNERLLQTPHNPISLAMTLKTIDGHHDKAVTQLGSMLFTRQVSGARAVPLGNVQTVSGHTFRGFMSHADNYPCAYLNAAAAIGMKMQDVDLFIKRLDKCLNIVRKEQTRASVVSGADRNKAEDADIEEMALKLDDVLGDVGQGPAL
UniProt Q80WT5: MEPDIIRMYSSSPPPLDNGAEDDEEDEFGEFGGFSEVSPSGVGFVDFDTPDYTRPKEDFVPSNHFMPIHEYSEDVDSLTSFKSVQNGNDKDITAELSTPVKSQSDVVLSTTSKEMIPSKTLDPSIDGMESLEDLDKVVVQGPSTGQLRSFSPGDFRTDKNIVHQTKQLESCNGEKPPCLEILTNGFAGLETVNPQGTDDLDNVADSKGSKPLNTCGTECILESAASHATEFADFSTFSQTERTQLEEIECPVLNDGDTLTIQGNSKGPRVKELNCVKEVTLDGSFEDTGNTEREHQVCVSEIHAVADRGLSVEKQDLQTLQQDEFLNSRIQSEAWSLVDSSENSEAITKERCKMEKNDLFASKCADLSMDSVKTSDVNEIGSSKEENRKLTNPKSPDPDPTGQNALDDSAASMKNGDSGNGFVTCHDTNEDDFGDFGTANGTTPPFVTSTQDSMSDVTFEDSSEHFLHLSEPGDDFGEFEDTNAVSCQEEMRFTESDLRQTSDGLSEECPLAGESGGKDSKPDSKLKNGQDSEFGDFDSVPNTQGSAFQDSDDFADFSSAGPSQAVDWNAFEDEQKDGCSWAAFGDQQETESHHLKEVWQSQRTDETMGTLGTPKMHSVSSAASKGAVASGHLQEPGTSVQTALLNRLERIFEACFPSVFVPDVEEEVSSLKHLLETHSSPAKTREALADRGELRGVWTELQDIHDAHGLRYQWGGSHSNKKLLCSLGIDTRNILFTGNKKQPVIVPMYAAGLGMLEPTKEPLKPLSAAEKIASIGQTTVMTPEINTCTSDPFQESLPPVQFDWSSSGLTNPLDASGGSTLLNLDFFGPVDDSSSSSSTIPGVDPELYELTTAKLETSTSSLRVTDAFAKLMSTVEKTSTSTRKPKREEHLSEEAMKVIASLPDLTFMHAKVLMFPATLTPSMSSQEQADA
UniProt Q6PE15: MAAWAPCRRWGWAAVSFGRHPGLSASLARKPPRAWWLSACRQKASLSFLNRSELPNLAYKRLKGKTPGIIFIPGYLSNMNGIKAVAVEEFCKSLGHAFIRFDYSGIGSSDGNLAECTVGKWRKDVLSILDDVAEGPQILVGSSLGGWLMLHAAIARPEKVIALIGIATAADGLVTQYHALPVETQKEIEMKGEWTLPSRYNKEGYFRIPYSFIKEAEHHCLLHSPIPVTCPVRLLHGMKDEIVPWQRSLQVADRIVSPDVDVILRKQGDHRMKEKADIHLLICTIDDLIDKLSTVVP
UniProt Q8BGA8: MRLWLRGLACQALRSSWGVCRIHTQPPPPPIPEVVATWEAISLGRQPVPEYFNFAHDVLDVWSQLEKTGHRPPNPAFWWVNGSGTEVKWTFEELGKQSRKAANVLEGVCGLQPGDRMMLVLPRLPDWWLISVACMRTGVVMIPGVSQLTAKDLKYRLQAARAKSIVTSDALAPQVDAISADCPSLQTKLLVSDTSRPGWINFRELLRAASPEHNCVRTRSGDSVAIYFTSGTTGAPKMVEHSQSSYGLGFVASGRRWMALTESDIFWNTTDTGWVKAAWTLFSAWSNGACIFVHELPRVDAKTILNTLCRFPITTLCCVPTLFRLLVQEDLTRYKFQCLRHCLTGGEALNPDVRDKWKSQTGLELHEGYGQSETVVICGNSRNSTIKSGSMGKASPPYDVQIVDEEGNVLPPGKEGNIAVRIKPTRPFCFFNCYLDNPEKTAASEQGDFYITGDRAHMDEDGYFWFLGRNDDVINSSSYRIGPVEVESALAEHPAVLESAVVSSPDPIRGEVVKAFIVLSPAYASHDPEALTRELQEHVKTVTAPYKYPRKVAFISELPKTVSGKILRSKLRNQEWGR
UniProt Q80U16: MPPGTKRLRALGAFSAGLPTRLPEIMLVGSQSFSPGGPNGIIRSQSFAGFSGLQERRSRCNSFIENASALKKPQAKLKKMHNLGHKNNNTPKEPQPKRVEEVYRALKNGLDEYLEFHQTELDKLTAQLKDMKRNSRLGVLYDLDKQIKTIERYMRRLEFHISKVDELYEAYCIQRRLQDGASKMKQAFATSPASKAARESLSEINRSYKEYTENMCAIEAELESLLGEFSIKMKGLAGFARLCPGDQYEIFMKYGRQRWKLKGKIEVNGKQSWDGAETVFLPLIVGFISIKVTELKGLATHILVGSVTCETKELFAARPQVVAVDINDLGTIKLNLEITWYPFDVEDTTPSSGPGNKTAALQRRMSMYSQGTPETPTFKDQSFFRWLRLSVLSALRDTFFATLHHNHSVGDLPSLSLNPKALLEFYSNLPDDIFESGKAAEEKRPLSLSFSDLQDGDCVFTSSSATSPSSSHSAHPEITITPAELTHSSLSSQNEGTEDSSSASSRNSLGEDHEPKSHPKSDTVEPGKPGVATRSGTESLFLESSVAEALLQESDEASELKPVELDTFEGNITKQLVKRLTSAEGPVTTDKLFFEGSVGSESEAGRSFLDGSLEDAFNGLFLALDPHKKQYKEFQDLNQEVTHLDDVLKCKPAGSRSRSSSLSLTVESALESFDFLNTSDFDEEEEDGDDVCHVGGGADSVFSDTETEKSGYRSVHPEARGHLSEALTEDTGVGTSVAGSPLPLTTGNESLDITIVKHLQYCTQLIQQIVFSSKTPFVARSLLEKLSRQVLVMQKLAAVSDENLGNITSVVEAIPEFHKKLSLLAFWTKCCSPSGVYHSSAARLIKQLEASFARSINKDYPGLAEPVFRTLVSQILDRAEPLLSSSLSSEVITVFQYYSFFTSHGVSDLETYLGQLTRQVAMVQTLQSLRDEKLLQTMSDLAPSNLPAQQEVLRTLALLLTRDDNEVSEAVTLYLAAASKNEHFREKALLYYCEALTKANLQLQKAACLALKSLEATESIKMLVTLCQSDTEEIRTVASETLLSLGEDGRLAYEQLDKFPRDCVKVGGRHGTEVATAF
UniProt Q76LS9: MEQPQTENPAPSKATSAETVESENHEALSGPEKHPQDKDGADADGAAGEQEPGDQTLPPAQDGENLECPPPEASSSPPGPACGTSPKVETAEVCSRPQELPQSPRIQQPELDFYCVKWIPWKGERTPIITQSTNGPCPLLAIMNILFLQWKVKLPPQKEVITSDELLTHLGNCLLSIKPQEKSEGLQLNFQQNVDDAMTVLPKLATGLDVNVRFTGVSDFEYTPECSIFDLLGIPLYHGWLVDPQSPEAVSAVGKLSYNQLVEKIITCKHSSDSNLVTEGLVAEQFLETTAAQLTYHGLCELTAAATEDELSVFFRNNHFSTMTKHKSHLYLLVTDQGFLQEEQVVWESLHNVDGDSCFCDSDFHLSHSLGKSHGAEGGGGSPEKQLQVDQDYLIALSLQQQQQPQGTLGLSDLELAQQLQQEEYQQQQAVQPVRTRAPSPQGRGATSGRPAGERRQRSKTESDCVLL
UniProt Q6PR54: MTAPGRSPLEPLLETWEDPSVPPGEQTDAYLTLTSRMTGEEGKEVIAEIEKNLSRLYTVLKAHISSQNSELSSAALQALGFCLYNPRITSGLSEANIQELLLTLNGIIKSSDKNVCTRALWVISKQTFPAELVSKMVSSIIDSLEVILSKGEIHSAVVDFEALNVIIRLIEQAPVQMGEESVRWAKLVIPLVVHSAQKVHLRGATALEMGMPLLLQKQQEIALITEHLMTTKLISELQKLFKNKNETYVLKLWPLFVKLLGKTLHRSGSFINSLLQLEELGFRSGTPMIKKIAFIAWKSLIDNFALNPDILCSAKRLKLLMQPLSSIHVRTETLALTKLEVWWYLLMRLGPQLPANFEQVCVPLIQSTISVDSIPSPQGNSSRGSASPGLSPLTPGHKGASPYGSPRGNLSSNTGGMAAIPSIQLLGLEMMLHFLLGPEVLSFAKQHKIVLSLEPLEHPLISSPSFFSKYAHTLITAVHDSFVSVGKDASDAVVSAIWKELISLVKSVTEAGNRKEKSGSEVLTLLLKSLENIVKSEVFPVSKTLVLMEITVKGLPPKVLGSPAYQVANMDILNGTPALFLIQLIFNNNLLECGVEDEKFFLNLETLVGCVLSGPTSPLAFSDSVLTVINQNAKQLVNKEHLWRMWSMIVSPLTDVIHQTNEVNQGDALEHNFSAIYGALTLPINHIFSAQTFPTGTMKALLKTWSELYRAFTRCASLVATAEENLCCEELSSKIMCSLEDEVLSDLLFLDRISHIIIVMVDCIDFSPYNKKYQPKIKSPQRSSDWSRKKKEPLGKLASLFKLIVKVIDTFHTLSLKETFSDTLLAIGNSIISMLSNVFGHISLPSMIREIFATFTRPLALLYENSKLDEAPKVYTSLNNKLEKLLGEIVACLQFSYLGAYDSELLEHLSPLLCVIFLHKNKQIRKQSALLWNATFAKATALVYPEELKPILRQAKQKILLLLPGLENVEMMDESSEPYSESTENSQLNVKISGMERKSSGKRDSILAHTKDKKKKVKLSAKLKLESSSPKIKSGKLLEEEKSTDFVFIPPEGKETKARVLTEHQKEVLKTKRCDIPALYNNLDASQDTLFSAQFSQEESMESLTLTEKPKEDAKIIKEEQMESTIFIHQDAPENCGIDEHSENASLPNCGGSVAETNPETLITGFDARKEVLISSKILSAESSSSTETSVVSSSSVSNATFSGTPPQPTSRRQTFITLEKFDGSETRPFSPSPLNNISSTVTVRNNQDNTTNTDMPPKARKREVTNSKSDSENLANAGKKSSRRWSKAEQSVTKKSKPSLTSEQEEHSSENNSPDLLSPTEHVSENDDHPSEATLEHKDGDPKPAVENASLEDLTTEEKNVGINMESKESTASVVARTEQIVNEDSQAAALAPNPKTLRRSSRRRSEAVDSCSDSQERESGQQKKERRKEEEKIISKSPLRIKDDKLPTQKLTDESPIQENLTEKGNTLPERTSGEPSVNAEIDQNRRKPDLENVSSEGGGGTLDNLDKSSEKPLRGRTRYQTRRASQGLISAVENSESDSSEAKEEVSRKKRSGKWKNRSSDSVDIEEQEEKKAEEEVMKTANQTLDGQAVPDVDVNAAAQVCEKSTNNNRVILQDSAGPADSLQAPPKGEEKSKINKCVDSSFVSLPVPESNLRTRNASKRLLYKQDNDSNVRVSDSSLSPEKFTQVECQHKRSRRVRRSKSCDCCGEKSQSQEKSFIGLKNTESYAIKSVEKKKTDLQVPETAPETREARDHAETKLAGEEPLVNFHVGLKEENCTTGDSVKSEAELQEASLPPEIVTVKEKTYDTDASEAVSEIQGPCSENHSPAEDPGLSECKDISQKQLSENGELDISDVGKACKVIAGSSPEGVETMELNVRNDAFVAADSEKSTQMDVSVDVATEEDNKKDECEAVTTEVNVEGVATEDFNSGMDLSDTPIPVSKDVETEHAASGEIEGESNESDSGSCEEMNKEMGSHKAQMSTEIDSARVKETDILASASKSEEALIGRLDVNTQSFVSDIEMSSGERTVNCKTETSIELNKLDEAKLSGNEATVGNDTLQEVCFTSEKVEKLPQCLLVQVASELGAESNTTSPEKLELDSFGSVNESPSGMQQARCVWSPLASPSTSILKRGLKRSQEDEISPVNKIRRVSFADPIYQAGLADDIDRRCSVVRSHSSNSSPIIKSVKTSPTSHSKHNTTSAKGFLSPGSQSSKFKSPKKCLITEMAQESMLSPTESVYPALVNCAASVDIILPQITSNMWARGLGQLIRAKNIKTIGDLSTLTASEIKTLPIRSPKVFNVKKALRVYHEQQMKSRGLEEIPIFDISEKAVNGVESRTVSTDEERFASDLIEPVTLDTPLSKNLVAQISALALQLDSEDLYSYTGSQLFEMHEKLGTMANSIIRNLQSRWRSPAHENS

Compound: CN[C@@H]1C[C@H]2O[C@@](C)([C@@H]1OC)n1c3ccccc3c3c4c(c5c6ccccc6n2c5c31)C(=O)NC4 [staurosporine]
Test: log2 fold change of pooled soluble protein (PISA), ligand vs vehicle (log2 ratio); higher = more thermally stabilized
Conditions: ligand concentration: 20 uM; assay format: PISA pool 52.9/55.5/58.6 C

With UniProt Q80TH2 as the target, how does the “log2 fold change of pooled soluble protein” value (“log2 fold change” for short) read?
The value was -0.138.

Which “log2 fold change” value does the source give for UniProt Q7TPQ3 here?
The value was 0.00988.

With UniProt Q8BGL3 as the target, how does the “log2 fold change” value read?
Its value is -0.211.

Which “log2 fold change” value does the source give for UniProt Q80XN0 here?
Its value is -0.0376.

UniProt Q791V5 was tested. Which “log2 fold change” value did it give?
Its value is 0.0164.

UniProt Q6NZC7 was tested. Which “log2 fold change” value did it give?
Its value is 0.033.

How did the “log2 fold change” value turn out when UniProt Q6P3D0 was run?
The value was 0.0445.

With UniProt Q80V03 as the target, how does the “log2 fold change” value read?
The value was 0.0999.

Which “log2 fold change” value does the source give for UniProt Q80W21 here?
Its value is -0.138.

Which “log2 fold change” value does the source give for UniProt Q6ZQK5 here?
Its value is 0.186.

UniProt Q7TNS2 was tested. Which “log2 fold change” value did it give?
The value was -0.23.

With UniProt Q6PAV2 as the target, how does the “log2 fold change” value read?
Its value is 0.162.

UniProt Q6ZWV7 was tested. Which “log2 fold change” value did it give?
Its value is -0.298.

UniProt Q6ZWX6 was tested. Which “log2 fold change” value did it give?
The value was 0.0159.

UniProt Q6P6M7 was tested. Which “log2 fold change” value did it give?
Its value is -0.00163.

With UniProt Q80WT5 as the target, how does the “log2 fold change” value read?
Its value is 0.0149.

How did the “log2 fold change” value turn out when UniProt Q8BFP9 was run?
The value was 0.0706.

How did the “log2 fold change” value turn out when UniProt Q80W93 was run?
The value was 0.183.

Which “log2 fold change” value does the source give for UniProt Q6PIE5 here?
Its value is -0.146.

For UniProt Q6P3A8, which “log2 fold change” value is on record?
The value was -0.0356.

For UniProt Q6PGB6, which “log2 fold change” value is on record?
The value was -0.0338.

For UniProt Q80U93, which “log2 fold change” value is on record?
Its value is 0.0153.

Which “log2 fold change” value does the source give for UniProt Q6PE15 here?
Its value is -0.105.

How did the “log2 fold change” value turn out when UniProt Q8BGA8 was run?
The value was -0.0599.

With UniProt Q7TNG5 as the target, how does the “log2 fold change” value read?
The value was 0.0932.

UniProt Q80U16 was tested. Which “log2 fold change” value did it give?
Its value is 0.0895.

Which “log2 fold change” value does the source give for UniProt Q6ZQ93 here?
The value was 0.229.

With UniProt Q6XVG2 as the target, how does the “log2 fold change” value read?
Its value is -0.00808.

With UniProt Q76LS9 as the target, how does the “log2 fold change” value read?
The value was 0.0412.

Which “log2 fold change” value does the source give for UniProt Q80WQ2 here?
Its value is -0.0184.

With UniProt Q7TPM1 as the target, how does the “log2 fold change” value read?
Its value is 0.00256.

How did the “log2 fold change” value turn out when UniProt Q80UU9 was run?
The value was 0.479.

Which “log2 fold change” value does the source give for UniProt Q810B6 here?
Its value is 0.156.

Which “log2 fold change” value does the source give for UniProt Q80TV8 here?
The value was -0.0102.

UniProt Q6PR54 was tested. Which “log2 fold change” value did it give?
Its value is 0.0108.
